Assay results taken from the supplement of paper PMC10849652.
The list shows a part of the results.

The chains behind the UniProt entries cited, without tags or fusion partners. Where a name states a change or a piece, a line headed by the entry shows the natural chain unless it says otherwise.
UniProt Q04837: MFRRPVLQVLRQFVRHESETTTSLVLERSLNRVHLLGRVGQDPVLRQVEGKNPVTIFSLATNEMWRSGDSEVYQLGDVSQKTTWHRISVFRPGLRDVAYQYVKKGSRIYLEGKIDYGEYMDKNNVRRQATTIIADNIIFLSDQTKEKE
UniProt Q9HBM1: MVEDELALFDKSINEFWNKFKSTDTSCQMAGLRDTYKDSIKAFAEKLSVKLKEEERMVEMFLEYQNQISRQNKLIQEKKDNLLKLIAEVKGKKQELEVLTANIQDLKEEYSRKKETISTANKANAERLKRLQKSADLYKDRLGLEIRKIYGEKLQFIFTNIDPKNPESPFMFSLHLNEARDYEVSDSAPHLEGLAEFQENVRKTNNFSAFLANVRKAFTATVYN
UniProt Q9BXP5: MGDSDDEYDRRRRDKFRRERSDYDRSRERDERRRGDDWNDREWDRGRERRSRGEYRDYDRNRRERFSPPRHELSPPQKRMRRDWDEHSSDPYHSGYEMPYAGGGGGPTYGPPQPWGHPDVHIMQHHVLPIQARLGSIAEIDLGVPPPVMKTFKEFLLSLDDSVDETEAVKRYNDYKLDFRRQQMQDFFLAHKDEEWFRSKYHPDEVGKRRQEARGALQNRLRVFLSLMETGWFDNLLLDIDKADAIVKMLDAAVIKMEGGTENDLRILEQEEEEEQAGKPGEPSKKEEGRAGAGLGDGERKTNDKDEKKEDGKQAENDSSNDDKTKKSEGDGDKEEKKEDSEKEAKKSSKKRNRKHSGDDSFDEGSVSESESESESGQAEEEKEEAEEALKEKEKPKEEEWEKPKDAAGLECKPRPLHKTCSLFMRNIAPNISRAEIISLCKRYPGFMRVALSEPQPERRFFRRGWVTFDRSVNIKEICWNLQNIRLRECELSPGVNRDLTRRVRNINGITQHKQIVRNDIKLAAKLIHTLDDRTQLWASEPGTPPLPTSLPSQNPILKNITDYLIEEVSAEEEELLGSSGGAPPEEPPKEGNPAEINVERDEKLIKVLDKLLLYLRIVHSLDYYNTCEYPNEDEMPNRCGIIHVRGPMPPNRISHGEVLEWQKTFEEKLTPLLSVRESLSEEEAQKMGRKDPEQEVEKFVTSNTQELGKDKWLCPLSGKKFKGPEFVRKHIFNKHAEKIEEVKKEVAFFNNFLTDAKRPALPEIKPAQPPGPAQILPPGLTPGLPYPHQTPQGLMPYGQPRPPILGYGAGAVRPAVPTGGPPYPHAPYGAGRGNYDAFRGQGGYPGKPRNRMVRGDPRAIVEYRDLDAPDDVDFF
UniProt Q15831: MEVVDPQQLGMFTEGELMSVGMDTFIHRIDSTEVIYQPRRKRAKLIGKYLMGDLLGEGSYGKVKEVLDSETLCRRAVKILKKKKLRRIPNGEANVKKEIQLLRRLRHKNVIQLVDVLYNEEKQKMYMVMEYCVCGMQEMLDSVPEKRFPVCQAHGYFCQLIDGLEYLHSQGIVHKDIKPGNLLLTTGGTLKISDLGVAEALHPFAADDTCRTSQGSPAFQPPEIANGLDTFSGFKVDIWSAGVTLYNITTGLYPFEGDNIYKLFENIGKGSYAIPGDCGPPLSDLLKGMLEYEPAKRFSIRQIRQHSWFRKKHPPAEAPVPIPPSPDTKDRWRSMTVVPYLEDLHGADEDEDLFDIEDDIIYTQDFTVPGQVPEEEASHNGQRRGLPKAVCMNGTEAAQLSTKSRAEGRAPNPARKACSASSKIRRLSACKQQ
UniProt P49458: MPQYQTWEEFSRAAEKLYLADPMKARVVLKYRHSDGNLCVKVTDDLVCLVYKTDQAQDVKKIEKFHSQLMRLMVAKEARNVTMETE
UniProt P16150: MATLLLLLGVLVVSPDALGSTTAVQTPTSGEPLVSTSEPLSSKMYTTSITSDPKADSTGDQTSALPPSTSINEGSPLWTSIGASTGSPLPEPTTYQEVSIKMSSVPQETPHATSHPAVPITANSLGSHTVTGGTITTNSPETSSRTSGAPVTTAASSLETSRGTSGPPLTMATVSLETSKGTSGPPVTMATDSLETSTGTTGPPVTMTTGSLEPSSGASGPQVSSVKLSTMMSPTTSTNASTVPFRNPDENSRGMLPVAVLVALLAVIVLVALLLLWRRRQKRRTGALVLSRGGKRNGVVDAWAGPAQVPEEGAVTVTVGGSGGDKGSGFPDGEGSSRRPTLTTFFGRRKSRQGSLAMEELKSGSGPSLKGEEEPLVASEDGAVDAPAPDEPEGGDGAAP
UniProt P10124: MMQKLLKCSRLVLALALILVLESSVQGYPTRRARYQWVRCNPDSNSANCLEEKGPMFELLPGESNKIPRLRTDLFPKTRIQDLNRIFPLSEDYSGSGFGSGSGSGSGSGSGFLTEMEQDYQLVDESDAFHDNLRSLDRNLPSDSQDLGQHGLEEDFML
UniProt Q96SB4, whole entry, looked up: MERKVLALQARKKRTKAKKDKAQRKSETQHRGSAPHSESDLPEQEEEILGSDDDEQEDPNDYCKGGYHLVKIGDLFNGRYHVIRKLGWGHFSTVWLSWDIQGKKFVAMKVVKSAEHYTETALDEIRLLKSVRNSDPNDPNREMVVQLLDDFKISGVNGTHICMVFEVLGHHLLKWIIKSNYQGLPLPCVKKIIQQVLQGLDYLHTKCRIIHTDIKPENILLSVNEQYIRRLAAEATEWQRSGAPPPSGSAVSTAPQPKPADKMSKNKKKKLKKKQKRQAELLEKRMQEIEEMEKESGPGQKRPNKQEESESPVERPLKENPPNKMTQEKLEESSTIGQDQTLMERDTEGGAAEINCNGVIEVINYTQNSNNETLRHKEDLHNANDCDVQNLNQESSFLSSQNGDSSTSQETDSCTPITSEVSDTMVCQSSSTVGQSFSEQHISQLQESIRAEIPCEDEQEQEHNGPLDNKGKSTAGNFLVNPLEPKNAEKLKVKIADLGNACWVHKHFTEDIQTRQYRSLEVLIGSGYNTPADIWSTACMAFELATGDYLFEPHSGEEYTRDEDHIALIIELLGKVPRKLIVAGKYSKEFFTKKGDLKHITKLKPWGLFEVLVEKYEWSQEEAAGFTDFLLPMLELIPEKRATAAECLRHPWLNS
UniProt Q9UQ90: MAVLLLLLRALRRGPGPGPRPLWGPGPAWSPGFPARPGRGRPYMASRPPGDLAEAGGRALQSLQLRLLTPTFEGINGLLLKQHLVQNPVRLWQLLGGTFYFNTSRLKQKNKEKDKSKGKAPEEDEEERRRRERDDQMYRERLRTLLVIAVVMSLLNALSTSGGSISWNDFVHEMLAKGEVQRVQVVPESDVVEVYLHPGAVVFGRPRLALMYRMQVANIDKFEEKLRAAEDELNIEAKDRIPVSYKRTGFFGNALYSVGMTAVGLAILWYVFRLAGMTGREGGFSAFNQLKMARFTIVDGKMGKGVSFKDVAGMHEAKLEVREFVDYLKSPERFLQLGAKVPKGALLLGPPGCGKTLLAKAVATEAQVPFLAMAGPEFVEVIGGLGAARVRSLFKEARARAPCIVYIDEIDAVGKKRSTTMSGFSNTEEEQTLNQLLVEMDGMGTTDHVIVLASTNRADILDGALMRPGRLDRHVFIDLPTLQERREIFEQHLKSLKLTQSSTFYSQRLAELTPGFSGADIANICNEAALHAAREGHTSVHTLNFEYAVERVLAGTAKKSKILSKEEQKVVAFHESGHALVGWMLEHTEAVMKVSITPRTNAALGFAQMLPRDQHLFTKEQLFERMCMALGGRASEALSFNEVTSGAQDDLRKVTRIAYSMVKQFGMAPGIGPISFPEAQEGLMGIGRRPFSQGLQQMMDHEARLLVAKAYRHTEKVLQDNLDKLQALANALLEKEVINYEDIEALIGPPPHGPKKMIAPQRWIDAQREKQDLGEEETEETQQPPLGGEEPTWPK
UniProt P09132: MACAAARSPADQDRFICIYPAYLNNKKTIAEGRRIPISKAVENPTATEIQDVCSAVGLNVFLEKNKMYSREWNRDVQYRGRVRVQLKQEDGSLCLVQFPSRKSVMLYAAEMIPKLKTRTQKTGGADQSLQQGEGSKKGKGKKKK
UniProt Q9C004: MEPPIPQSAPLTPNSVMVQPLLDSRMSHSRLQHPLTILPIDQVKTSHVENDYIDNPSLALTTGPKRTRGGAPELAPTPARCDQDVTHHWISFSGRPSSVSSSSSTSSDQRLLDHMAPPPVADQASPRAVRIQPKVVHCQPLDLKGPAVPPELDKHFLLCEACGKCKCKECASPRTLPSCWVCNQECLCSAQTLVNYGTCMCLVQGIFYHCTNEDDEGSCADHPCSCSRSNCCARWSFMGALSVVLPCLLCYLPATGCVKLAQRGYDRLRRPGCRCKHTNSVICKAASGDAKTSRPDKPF
UniProt Q8NBT2: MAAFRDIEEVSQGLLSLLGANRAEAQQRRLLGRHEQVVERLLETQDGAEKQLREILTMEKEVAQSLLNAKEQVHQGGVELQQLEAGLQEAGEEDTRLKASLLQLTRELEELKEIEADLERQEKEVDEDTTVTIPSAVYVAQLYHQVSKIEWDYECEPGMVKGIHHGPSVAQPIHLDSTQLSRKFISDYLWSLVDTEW
UniProt O95793: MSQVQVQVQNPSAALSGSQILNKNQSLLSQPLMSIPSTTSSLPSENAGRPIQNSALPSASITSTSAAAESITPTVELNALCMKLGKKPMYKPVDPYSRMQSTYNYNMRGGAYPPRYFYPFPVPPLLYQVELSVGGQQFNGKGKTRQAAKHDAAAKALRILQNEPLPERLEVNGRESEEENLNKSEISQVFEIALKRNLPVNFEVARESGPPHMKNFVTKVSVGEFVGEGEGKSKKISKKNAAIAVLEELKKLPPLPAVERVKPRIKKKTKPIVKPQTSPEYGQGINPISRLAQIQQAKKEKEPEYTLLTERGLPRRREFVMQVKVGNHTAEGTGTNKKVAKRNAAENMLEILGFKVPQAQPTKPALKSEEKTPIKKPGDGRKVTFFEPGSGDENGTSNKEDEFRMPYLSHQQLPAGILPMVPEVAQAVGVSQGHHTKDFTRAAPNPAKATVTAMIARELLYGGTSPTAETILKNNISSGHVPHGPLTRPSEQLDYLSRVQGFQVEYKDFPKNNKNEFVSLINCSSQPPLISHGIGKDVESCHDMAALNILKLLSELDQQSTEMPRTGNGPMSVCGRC
UniProt P37108: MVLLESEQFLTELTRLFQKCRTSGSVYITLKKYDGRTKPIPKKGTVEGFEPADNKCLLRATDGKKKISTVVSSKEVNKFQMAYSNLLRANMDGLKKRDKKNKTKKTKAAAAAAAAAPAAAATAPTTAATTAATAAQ
UniProt Q13243: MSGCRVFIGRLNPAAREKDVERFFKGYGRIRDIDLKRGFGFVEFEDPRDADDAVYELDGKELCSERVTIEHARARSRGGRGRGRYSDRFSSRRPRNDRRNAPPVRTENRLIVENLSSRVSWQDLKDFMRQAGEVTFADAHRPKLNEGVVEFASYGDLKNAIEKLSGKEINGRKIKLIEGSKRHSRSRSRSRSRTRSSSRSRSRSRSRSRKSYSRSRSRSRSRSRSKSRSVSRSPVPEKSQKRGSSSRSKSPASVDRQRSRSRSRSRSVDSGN
UniProt P19623: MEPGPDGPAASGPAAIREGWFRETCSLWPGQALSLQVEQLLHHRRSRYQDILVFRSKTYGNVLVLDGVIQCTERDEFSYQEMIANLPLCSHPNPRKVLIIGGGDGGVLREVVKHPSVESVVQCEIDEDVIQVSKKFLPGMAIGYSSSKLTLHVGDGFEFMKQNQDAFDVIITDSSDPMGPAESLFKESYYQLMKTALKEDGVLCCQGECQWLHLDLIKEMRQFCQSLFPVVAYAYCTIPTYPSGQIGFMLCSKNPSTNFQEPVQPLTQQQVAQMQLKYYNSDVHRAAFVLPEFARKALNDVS
UniProt Q8NB90: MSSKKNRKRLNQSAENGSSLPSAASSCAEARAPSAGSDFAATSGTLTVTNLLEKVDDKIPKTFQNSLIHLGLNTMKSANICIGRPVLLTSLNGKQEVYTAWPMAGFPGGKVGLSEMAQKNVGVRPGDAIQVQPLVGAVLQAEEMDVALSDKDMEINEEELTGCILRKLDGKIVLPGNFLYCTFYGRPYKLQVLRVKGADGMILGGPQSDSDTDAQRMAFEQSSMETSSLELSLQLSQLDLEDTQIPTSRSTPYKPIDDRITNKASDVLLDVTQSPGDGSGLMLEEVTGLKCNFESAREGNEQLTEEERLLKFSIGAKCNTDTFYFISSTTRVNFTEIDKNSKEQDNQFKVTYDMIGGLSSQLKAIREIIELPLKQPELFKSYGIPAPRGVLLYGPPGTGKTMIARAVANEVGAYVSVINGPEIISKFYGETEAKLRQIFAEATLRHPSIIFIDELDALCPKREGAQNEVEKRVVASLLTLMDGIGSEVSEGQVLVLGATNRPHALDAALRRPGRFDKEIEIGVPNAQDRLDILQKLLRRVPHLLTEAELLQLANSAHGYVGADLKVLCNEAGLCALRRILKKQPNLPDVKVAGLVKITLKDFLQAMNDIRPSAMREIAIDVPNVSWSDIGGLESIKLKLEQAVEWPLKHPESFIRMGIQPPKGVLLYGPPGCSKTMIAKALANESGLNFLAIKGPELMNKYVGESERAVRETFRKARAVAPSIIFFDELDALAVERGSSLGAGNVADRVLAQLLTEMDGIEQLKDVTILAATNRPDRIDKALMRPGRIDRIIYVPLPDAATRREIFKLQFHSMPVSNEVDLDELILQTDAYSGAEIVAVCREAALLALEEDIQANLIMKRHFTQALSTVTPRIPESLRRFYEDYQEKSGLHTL

compound: Cc1nc(Nc2n[nH]c3c2CN(C(=O)N[C@H](CN(C)C)c2ccccc2)C3(C)C)c2sccc2n1; test: log2 fold change, soluble protein after heating vs DMSO (PISA); higher = thermal stabilisation; K562 cells, 10 uM, 30 min; active = over 0.2 and 3.5 SD of the protein, either way, in both replicates (recomputed)
Summary of the method: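 Soluble protein was quantified by TMTpro 16plex LC-MS/MS after channel sums were equalised. It was obtained as the supernatant after 21,000xg for 90 min from pooled aliquots of K562 cells (2×10^6 cells/mL, 10 μM compound, 30 min) heated for 3 min across 48°C-58°C and extracted in PBS with 0.5% NP-40 at 4°C. Thermal stability values are relative to control samples and come from duplicates. They are given as log2 fold changes.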

log2 fold change, inactive:
SSBP1 (UniProt Q04837) 0.029
STAMBP (UniProt O95630) -0.129
SPC25 (UniProt Q9HBM1) -0.006
SRRM1 (UniProt Q8IYB3) -0.042
SSR1 (UniProt P43307) 0.063
SRRT (UniProt Q9BXP5) -0.353
STK11 (UniProt Q15831) -0.062
SPTA1 (UniProt P02549) -0.148
SPTAN1 isoform 2 (UniProt Q13813) -0.091
SRP9 (UniProt P49458) 0.093
SPN (UniProt P16150) 0.051
SPTLC2 (UniProt O15270) 0.008
SRGN (UniProt P10124) -0.092
SRPK1 (UniProt Q96SB4) 0.702
SPG7 (UniProt Q9UQ90) 0
SRP19 (UniProt P09132) 0.008
SPRY4 (UniProt Q9C004) -0.06
SPC24 (UniProt Q8NBT2) -0.034
STAU1 (UniProt O95793) 0.056
SRP14 (UniProt P37108) 0.121
SRSF5 (UniProt Q13243) -0.242
SRM (UniProt P19623) 0.02
STIP1 isoform 2 (UniProt P31948) -0.006
SPATA5 (UniProt Q8NB90) -0.116

Fetched one by one from the entries so far, 2 records:
log2 fold change, inactive:
SRRM1 (UniProt Q8IYB3) -0.042
SRSF5 (UniProt Q13243) -0.242
